# Experimental data published in patent US20080199423A1, “Methods of Using Apo2l Receptor Agonists and Ink Cell Activators” (GENENTECH, INC., priority 2004, published 2008).
# At least one structure is not confirmed: it was looked up by name or label, or the drawing left a doubt.
# Test system: 4T1 cells
# Experiment: Lysis of 4T1 cells by activated NK cells treated with inhibitors
# Assay type: cell-based, mouse
# Settings: E/T ratio 25 to 1
# Procedure: The cytolytic activity of resting and activated NK cells was evaluated against 4T1 target cells. The activated NK cells were treated with inhibitors of Perforin maturation (concanamycin A), GraB (Z-AAD-FMK), PI3K (wortmannin), MEK1 kinase (PD98059), S6 kinase (rapamycin) and JNK (SP) to assess the role of cytotoxic granules. The E/T ratio was 25 to 1, and results shown are from one representative donor (out of three donors). […] 4T1 target cells were treated with Apo2L/TRAIL protein (100 ng/ml) or with activated NK cells (“Act NK”) for 30 minutes, 1 hour or 4 hours. The E/T ratio was 10:1. Extracts of the 4T1 cells were analysed by SDS-PAGE and immunoblot analysis for pro-caspase-3, cleaved caspase-3 and cleaved PARP.
# For the cytotoxicity assays, target cells were labeled with 100 mCi ^51Cr for 1 hour at 37° C. and then washed 3 times before use. […] The cytotoxicity assays were performed in round bottom 96 well plates and the percent specific lysis was calculated as 100× (experimental cpm-spontaneous cpm)/(total cpm-spontaneous cpm). The role of Apo2L/TRAIL expressed by NK cells in the lysis of target cells was evaluated using anti-Apo2L/TRAIL mAbs (5C2 and 1D1, Genentech, Inc.). […]
compound,measurement,value
COC[C@H]1OC(=O)c2coc3c2[C@@]1(C)C1=C(C3=O)[C@@H]2CCC(=O)[C@@]2(C)C[C@H]1OC(C)=O [wortmannin],Effect of inhibitor treatment of activated NK cells on lysis of 4T1 cells,blocked the lytic activity
